Values of other authors as cited in patent US11395821B2, “Treatment of EGFR-driven cancer with fewer side effects” (G1 Therapeutics, Inc., priority 2017, dated 2022).
At least one structure is not confirmed: it was looked up by name or label, or the drawing left a doubt. Some entries share one result that the patent states for a list of compounds.

How the values were obtained:
[1] = tested on: EGFR-mutant EGFR-T790M NSCLC; conditions: patients who have developed resistance to gefitinib or erlotinib; cited from earlier work
[2] = tested on: NSCLC brain metastases; conditions: in combination with gefitinib; cited from earlier work

C=CC(=O)Nc1cccc(Nc2nc(Nc3ccc(N4CCN(C(C)=O)CC4)cc3OC)ncc2C(F)(F)F)c1 [rociletinib]
response rate [1]: > 50%

CC(=O)c1c(C)c2cnc(Nc3ccc(N4CCNCC4)cn3)nc2n(C2CCCC2)c1=O [palbociclib]
brain metastases [2]: reduction in brain metastases
